From publication PMC12500908 come the findings set out here.

Protein sequences, listed by entry. Tags and fused reporters are not part of them.
UniProt Q86U44: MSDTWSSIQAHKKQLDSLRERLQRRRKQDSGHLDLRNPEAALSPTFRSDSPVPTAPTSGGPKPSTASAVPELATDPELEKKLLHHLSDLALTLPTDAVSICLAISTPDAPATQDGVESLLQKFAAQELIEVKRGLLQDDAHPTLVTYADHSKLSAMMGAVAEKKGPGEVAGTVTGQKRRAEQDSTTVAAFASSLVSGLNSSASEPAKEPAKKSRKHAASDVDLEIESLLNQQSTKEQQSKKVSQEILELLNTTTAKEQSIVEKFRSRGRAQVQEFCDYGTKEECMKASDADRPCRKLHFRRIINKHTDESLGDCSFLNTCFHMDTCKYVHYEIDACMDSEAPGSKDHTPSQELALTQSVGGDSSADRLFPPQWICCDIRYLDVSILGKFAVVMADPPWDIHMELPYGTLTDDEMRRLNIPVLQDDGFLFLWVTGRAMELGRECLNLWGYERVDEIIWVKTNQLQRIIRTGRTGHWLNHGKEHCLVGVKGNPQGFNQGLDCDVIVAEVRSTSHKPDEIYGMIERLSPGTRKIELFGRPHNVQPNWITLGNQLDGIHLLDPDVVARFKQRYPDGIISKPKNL
UniProt Q8C3P7: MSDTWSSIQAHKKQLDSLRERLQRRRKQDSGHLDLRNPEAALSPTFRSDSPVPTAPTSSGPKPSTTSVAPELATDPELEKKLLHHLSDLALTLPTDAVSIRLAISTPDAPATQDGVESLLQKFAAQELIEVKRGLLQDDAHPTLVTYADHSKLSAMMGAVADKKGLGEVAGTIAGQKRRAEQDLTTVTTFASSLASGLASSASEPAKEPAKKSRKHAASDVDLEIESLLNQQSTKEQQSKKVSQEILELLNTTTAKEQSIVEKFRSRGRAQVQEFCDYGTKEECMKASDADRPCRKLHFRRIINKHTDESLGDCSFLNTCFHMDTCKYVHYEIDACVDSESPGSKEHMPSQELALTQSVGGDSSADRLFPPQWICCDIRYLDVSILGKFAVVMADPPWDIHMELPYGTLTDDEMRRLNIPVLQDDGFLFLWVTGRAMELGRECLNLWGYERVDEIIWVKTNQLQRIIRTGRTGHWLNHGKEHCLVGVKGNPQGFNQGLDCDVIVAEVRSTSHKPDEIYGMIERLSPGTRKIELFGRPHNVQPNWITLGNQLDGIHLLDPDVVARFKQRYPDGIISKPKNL
UniProt Q15172: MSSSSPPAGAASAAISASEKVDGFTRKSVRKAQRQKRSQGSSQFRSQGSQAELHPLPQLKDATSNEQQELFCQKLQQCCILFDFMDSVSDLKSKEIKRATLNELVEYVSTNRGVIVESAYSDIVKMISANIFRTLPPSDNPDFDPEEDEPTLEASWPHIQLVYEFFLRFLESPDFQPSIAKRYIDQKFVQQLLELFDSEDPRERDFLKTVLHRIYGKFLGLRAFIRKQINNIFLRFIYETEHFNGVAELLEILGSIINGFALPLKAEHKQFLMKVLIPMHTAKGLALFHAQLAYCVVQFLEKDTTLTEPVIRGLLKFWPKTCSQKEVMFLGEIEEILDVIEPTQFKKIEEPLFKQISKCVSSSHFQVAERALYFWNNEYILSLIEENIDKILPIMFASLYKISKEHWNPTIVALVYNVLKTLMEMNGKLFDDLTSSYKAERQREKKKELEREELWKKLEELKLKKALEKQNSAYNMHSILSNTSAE
UniProt Q6PD03: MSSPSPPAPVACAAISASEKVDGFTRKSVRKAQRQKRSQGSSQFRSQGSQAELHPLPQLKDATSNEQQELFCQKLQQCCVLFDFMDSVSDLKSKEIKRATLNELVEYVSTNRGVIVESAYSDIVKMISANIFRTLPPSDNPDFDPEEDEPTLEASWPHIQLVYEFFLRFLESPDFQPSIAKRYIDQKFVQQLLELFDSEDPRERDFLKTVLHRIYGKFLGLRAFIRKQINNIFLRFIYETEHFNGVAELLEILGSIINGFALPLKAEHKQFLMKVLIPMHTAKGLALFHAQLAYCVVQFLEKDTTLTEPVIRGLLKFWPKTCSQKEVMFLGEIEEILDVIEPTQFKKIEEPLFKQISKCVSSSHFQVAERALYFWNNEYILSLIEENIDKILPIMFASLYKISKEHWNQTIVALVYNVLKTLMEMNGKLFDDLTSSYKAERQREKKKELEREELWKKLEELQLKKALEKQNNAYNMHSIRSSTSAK

No constants are given. Whether binding was seen depends on the method and setting. In cells and extracts the contact can be indirect. Some binding calls cover weakened binding; strength is not graded here.

One test has as its target Flag-METTL3 (UniProt Q86U44). As to the kind of experiment: co-IP; HepG2 cells co-transfected with Flag-METTL3 and HA-B56α plasmids for 24 h; Co-IP with anti-Flag or anti-HA antibodies, WB with anti-HA and anti-Flag.
Test [1] deals with METTL3, endogenous in HepG2 cells (human (endogenous in HepG2)) (UniProt Q86U44). As to the kind of experiment: co-IP; IP with anti-METTL3 and with anti-B56α antibodies; HepG2 cells transfected with or without pcDNA3.1-HBx plasmid (1 μg/mL, 24 h); endogenous proteins.
Test [2] has as its target wild-type METTL3 overexpressed in HepG2 cells (METTL3-WT) (UniProt Q86U44). The test is described as follows: co-IP; IP with anti-METTL3 or anti-B56α antibodies; HepG2 cells overexpressing B56α (B56α-OE) or METTL3-WT.
Test [3] concerns the target METTL3, endogenous in mouse liver (mouse (endogenous in liver tissue)) (UniProt Q8C3P7). The test is described as follows: co-IP; liver tissue of HBx-Tg mice and wild-type controls, with or without STM2457 (50 mg/kg i.p. daily, 14 days).
For test [4], the target named is METTL3, endogenous in HepG2 cells (human (endogenous in HepG2)) (UniProt Q86U44). The test is described as follows: co-IP; IP with anti-METTL3 or anti-B56α antibodies; HepG2 cells overexpressing B56α (B56α-OE) or METTL3-WT.

For the substance HA-B56α (from UniProt Q15172 1-486), in the test with Flag-METTL3, the binding entry is on record as “binds”.
Regarding “PP2A B56α subunit, endogenous in HepG2 cells (from UniProt Q15172 1-486)”, the binding entry in test [1] and in test [2] was “binds” in each case.
As to “PP2A B56α subunit, endogenous in mouse liver (from UniProt Q6PD03 1-486)”, the binding entry in test [3] is given as “binds”.
In the case of “B56α overexpressed in HepG2 cells (B56α-OE) (from UniProt Q15172 1-486)”, the binding entry in test [4] was “binds”.
